Laboratory results taken from publication doi:10.1101/2022.09.26.509472.
Residue numbers refer to the chain shown, from its start. No constants are given. Whether binding was seen depends on the method and setting. In cells and extracts the contact can be indirect. Some binding calls cover weakened binding; strength is not graded here. Sequences can lack the tags named with a protein.

Protein sequences, listed by entry. Tags and fused reporters are not part of them. Lines headed by an entry give the natural chain unless they say otherwise; changes in a name come on top.
UniProt Q5S007: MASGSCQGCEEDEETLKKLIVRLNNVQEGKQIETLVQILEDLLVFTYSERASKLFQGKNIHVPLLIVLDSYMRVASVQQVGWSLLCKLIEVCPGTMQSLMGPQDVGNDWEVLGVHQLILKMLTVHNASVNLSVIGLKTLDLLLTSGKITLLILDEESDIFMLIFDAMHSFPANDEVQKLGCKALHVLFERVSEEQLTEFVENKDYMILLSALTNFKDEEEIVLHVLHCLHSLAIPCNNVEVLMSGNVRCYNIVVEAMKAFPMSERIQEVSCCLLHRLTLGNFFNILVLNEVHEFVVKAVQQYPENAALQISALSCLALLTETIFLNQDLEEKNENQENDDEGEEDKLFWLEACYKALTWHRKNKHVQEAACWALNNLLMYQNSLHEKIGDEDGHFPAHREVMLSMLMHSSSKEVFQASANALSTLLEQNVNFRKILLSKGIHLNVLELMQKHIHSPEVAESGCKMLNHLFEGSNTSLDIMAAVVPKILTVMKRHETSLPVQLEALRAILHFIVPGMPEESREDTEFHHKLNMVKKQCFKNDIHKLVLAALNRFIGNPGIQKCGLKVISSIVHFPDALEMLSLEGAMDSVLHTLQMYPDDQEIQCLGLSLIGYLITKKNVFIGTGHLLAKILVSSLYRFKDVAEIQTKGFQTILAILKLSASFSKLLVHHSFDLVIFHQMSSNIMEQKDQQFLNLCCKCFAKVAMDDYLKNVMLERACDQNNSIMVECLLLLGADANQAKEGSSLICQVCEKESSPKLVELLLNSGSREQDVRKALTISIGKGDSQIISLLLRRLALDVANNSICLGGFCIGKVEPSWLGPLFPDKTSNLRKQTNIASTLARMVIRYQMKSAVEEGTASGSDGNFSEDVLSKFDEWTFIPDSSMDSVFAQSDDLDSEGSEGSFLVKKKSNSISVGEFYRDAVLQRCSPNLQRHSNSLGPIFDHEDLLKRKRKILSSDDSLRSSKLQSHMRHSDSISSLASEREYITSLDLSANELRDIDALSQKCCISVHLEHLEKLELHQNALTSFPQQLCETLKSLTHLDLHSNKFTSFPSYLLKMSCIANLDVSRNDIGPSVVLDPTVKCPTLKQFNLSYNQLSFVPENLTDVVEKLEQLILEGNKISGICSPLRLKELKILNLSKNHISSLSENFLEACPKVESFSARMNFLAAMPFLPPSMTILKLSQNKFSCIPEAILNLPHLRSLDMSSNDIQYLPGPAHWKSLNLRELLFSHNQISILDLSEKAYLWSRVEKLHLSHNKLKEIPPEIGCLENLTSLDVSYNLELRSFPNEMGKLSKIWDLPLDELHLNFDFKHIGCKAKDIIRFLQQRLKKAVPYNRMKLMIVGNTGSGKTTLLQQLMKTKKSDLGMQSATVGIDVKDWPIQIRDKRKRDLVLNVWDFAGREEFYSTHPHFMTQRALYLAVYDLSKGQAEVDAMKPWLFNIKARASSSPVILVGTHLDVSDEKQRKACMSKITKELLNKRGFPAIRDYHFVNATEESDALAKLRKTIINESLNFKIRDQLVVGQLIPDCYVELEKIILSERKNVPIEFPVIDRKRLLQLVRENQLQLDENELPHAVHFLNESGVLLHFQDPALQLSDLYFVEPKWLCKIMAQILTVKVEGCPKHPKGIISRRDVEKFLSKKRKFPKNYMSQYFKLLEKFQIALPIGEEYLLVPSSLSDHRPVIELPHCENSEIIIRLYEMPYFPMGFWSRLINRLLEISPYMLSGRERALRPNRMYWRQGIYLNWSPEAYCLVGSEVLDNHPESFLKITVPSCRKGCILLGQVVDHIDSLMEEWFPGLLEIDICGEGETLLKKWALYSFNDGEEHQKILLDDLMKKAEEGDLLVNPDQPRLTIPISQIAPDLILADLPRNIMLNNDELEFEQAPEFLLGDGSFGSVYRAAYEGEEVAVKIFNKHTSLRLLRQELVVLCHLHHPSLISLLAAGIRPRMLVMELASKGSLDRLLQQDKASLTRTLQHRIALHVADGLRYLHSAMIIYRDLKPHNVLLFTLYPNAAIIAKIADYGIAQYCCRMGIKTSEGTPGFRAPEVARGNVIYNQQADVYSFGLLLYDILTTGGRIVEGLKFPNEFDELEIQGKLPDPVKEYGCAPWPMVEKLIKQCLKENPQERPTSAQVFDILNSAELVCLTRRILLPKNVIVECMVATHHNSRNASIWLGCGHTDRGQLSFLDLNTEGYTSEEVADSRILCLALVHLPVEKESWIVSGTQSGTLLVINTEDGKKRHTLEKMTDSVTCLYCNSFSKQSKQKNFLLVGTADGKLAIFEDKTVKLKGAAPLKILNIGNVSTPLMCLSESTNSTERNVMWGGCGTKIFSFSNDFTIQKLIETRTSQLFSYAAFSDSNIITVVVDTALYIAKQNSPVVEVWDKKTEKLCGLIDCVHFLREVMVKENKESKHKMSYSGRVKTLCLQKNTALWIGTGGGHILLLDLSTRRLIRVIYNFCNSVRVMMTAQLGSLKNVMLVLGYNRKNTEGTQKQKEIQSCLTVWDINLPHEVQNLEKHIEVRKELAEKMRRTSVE

How the values were obtained:
Assay in all cases: co-IP
GFP-Rab29 S185A (human) = molecular target: T1, GFP-Rab29 S185A (human) (UniProt O14966)
T1 sequence: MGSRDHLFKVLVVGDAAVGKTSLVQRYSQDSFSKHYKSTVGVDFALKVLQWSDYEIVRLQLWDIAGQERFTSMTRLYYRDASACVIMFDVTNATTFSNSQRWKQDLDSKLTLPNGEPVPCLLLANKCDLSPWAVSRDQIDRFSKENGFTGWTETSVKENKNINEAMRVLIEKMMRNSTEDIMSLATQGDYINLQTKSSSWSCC

GFP-Rab29 S185D (human) = molecular target: T2, GFP-Rab29 S185D (human) (UniProt O14966)
T2 sequence: T1 sequence with A185D

[1] = molecular target: T3, GFP-Rab29 wild-type (human Rab29) (human) (UniProt O14966)
T3 sequence: T1 sequence with A185S

GFP-Rab29 S185E (human) = molecular target: T4, GFP-Rab29 S185E (human) (UniProt O14966)
T4 sequence: T1 sequence with A185E

Measured: binding

G2019S LRRK2 (leucine-rich repeat kinase 2, G2019S mutant) (from UniProt Q5S007 1-2527) (enzyme)
binds: all assays above
